Test results from the supplement of paper PMC10849652.
Some of the results follow.

By UniProt entry, the sequences of proteins in these tests, tags left out. Where a name states a change or a piece, a line headed by the entry shows the natural chain unless it says otherwise.
UniProt O00559: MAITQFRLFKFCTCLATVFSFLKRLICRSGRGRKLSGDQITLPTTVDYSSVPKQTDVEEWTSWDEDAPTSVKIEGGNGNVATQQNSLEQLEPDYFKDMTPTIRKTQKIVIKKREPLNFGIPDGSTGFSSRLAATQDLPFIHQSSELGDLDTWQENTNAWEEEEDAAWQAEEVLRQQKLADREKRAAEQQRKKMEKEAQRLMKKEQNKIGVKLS
UniProt Q9UKB3: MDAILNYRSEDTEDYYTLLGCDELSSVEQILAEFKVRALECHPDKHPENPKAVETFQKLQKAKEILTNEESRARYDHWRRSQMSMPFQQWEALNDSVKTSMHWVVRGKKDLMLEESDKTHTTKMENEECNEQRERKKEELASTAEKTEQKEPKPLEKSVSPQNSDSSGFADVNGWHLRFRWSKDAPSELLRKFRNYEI
UniProt Q5JSL3: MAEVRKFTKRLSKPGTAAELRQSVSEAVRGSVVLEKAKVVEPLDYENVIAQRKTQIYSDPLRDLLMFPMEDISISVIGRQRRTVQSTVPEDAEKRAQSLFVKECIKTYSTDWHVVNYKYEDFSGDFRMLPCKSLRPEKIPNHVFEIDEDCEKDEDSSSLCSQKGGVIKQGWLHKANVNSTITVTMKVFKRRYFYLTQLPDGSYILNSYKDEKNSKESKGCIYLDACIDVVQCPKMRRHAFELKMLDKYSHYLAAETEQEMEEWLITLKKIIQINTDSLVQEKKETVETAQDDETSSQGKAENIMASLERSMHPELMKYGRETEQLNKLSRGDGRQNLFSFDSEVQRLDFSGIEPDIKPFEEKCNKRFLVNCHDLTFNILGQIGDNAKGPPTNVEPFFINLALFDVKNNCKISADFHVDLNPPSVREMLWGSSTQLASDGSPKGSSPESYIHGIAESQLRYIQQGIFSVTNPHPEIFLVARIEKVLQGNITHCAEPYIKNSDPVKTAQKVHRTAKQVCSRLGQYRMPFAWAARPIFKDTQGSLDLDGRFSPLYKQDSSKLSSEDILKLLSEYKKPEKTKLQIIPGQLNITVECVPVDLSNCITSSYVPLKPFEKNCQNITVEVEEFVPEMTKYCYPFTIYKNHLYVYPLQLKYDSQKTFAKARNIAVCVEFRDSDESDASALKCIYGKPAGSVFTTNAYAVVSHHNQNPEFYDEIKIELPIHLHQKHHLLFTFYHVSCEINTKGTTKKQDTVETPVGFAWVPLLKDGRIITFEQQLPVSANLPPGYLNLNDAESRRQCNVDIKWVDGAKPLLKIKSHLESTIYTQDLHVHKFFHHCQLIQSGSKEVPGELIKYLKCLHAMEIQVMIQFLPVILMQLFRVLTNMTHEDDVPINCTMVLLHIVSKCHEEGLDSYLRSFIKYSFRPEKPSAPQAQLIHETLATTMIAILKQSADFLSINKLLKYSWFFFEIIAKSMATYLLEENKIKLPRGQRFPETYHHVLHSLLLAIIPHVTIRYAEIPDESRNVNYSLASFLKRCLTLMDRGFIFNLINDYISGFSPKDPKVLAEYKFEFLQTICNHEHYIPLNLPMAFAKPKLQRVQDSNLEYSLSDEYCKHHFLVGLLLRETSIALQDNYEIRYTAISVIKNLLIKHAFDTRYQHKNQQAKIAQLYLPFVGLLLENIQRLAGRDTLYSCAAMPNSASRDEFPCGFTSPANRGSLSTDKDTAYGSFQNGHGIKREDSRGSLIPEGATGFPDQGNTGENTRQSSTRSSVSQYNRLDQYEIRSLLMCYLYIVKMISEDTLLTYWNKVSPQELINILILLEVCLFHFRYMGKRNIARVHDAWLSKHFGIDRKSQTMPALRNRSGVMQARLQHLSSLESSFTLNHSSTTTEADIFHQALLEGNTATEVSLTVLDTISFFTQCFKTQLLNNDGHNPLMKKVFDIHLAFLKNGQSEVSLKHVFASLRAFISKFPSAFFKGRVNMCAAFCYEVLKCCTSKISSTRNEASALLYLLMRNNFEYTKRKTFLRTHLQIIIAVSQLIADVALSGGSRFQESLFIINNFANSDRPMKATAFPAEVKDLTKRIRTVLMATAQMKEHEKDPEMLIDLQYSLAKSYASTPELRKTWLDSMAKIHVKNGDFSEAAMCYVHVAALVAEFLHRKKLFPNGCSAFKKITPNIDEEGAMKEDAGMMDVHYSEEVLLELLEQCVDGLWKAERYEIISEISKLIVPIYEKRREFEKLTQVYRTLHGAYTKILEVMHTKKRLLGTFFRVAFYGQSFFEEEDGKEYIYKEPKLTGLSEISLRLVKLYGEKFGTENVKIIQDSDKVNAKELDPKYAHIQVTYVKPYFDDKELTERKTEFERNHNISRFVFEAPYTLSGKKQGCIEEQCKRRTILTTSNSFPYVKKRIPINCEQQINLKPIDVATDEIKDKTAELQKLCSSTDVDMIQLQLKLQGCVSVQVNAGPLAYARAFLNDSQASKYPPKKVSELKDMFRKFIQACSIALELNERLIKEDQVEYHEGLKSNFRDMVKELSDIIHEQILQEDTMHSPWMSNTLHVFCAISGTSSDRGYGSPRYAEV
UniProt O75190: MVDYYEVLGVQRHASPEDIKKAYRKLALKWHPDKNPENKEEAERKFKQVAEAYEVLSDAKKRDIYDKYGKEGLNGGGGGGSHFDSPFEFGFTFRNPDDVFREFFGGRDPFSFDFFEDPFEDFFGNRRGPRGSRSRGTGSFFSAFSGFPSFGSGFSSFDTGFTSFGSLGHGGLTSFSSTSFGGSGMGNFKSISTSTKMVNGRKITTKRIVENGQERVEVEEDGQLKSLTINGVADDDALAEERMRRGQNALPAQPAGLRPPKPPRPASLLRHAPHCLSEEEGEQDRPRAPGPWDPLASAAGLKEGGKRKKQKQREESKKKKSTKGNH
UniProt Q92611: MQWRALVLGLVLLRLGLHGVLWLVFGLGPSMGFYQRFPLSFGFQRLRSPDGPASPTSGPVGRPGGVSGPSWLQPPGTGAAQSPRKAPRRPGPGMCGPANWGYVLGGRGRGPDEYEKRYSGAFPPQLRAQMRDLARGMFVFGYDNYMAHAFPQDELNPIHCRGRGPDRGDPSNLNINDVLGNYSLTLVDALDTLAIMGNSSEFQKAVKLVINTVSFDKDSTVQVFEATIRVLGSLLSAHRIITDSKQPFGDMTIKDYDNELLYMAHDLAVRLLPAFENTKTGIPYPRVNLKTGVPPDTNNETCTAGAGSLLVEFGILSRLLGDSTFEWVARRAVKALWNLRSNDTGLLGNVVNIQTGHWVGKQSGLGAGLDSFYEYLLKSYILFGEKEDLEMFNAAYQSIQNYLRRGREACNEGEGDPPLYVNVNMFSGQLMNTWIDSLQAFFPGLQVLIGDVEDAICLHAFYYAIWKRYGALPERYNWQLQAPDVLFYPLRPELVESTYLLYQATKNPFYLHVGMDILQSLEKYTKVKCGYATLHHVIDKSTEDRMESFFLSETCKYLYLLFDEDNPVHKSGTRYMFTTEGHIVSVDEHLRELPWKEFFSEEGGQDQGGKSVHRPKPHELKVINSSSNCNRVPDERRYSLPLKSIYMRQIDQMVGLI
UniProt Q7L8W6: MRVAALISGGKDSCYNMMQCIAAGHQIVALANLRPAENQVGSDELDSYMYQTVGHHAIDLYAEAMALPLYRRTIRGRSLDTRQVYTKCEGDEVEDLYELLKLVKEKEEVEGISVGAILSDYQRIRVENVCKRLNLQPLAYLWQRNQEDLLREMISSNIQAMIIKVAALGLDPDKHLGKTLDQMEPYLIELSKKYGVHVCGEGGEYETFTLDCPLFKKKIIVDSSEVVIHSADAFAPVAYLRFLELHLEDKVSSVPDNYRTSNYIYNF
UniProt Q9H2P9: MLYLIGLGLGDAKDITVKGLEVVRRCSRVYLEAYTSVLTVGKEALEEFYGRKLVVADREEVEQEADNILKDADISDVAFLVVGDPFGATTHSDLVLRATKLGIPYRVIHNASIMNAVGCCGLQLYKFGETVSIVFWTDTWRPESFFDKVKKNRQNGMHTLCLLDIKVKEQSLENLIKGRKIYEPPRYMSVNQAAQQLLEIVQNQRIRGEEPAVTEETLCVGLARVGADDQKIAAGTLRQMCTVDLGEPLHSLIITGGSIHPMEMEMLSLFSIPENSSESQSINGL
UniProt Q5F1R6: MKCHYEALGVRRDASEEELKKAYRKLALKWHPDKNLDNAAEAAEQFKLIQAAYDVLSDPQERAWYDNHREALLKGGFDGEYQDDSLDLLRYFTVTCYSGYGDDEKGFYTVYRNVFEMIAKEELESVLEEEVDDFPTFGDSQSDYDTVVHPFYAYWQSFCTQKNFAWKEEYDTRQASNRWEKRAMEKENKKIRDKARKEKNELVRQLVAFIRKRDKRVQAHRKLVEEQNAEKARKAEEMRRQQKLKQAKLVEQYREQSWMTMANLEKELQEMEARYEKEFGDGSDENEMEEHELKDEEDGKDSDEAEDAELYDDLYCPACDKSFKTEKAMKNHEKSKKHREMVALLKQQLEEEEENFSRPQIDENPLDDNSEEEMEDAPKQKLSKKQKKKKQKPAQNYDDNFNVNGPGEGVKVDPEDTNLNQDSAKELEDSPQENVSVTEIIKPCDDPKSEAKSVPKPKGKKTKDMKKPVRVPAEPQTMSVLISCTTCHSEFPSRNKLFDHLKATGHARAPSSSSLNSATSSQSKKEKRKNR
UniProt Q9Y6G9, whole entry, looked up: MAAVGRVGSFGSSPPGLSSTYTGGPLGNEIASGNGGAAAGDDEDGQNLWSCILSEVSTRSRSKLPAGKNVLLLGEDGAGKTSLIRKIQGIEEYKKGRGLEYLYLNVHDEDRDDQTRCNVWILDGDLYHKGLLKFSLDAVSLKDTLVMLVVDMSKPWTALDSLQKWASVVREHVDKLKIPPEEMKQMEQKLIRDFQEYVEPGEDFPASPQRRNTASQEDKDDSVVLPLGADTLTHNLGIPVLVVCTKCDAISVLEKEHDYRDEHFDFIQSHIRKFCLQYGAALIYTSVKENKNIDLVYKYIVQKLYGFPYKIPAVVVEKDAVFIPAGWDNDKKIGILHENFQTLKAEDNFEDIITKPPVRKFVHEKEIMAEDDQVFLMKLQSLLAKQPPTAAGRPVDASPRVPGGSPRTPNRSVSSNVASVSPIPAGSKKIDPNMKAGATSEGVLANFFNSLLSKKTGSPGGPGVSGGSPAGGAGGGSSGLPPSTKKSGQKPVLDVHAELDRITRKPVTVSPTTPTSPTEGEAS
UniProt Q9H3H5: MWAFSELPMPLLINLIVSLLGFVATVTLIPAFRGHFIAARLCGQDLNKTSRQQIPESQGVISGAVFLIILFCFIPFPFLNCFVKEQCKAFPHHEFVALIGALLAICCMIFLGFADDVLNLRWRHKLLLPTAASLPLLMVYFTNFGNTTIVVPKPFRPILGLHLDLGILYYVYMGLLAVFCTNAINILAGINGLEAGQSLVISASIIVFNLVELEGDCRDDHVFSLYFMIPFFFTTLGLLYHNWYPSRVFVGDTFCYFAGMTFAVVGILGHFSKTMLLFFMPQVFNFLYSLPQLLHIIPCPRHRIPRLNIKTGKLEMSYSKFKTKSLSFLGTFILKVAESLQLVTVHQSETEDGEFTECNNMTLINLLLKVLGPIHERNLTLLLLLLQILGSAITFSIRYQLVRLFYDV
UniProt Q56P03: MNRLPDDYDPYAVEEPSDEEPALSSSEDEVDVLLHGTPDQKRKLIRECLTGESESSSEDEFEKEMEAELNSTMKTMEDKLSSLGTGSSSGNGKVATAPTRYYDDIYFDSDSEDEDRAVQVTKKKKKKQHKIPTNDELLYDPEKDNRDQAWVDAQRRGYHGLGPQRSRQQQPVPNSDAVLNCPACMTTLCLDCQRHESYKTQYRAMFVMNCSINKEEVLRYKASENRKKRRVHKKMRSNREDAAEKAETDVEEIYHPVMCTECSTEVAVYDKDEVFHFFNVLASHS
UniProt Q4LDG9: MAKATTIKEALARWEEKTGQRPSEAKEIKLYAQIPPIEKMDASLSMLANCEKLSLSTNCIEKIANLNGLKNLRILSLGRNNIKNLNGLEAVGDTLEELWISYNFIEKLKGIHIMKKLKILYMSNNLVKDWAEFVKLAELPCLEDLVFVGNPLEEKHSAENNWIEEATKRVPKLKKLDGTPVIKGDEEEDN
UniProt Q6UX65: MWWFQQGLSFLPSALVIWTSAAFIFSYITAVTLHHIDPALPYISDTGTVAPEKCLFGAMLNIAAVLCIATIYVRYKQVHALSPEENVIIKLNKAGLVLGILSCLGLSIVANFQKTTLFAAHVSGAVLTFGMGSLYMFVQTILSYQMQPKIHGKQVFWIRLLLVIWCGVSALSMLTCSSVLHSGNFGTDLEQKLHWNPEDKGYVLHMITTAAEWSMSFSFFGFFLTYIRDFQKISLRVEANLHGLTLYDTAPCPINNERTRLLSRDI

How the values were obtained:
Experiment in all cases: log2 fold change, soluble protein after heating vs DMSO (PISA); higher = thermal stabilisation; K562 cells, 10 uM, 30 min; active = over 0.2 and 3.5 SD of the protein, either way, in both replicates (recomputed)
[1] = compound: COC1=CC=C(C=C1)CN2C=CC3=C2C=C(C=C3)C(=O)NO
Summary of the method: (§1)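 For each measurement, 10 μM compound was applied for 30 min to K562 cells at 2×10^6 cells/mL. Aliquots were heated for 3 min across 48°C-58°C, pooled, and extracted in PBS with 0.5% NP-40 at 4°C; the supernatant after 21,000xg for 90 min was soluble protein. This was quantified by TMTpro 16plex LC-MS/MS with channel sums equalised, and thermal stability was reported relative to control samples from duplicates, on a log2 fold-change scale.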

filanesib = compound: CON(C)C(=O)N1N=C(c2cc(F)ccc2F)S[C@@]1(CCCN)c1ccccc1 [filanesib]
Summary of the method: as §1

zotarolimus = compound: CO[C@H]1C[C@@H]2CC[C@@H](C)[C@@](O)(O2)C(=O)C(=O)N2CCCC[C@H]2C(=O)O[C@H]([C@H](C)C[C@@H]2CC[C@H](n3cnnn3)[C@H](OC)C2)CC(=O)[C@H](C)/C=C(\C)[C@@H](O)[C@@H](OC)C(=O)[C@H](C)C[C@H](C)/C=C/C=C/C=C/1C [zotarolimus]
Summary of the method: as §1

idasanutlin = compound: COc1cc(C(=O)O)ccc1NC(=O)[C@@H]1N[C@@H](CC(C)(C)C)[C@](C#N)(c2ccc(Cl)cc2F)[C@H]1c1cccc(Cl)c1F [idasanutlin]
Summary of the method: as §1

alisertib = compound: COc1cc(Nc2ncc3c(n2)-c2ccc(Cl)cc2C(c2c(F)cccc2OC)=NC3)ccc1C(=O)O [alisertib]
Summary of the method: as §1

[2] = compound: COc1cc2nc(-c3cc(F)ccc3O)nc(N[C@@H]3CNC[C@H]3C(C)(C)O)c2cc1OC
Summary of the method: as §1

gefitinib = compound: COc1cc2ncnc(Nc3ccc(F)c(Cl)c3)c2cc1OCCCN1CCOCC1 [gefitinib]
Summary of the method: as §1

[3] = compound: COc1cccc2cc(-c3nc([C@H]4CC[C@H](C(=O)O)CC4)n4ncnc(N)c34)[nH]c12
Summary of the method: as §1

lapatinib = compound: CS(=O)(=O)CCNCc1ccc(-c2ccc3ncnc(Nc4ccc(OCc5cccc(F)c5)c(Cl)c4)c3c2)o1 [lapatinib]
Summary of the method: as §1

pictilisib = compound: CS(=O)(=O)N1CCN(Cc2cc3nc(-c4cccc5[nH]ncc45)nc(N4CCOCC4)c3s2)CC1 [pictilisib]
Summary of the method: as §1

Measured: log2 fold change

EBAG9 isoform 2 (UniProt O00559)
inactive: [1] 0.181 | filanesib -0.065 | zotarolimus 0.021 | idasanutlin 0.012 | alisertib -0.06 | [2] -0.024 | gefitinib 0.031 | [3] 0.089 | lapatinib 0.077 | pictilisib 0.112

DNAJC12 (UniProt Q9UKB3)
inactive: [1] -0.014 | filanesib 0.035 | zotarolimus -0.025 | idasanutlin -0.029 | alisertib -0.027 | [2] 0.085 | gefitinib 0.022 | [3] -0.008 | lapatinib -0.015 | pictilisib 0.055

DOCK11 (UniProt Q5JSL3)
inactive: [1] -0.016 | filanesib -0.004 | zotarolimus -0.018 | idasanutlin -0.071 | alisertib -0.032 | [2] 0.103 | gefitinib -0.012 | [3] 0 | lapatinib 0 | pictilisib 0.062

DPYSL2 (UniProt Q16555)
active: pictilisib 0.262
inactive: [1] -0.082 | filanesib 0.006 | zotarolimus -0.06 | idasanutlin 0.029 | alisertib 0.093 | [2] 0.055 | gefitinib -0.041 | [3] 0.038 | lapatinib 0.029

DNAJB6 (UniProt O75190)
inactive: [1] -0.115 | filanesib 0.046 | zotarolimus -0.031 | idasanutlin -0.075 | alisertib 0.027 | [2] 0.009 | gefitinib 0.02 | [3] -0.004 | lapatinib 0.008 | pictilisib 0.075

Fetched one by one from above, 2 records:
DOCK11 (UniProt Q5JSL3)
inactive: [1] -0.016 | filanesib -0.004 | zotarolimus -0.018 | idasanutlin -0.071 | alisertib -0.032 | [2] 0.103 | gefitinib -0.012 | [3] 0 | lapatinib 0 | pictilisib 0.062

DPYSL2 (UniProt Q16555)
active: pictilisib 0.262
inactive: [1] -0.082 | filanesib 0.006 | zotarolimus -0.06 | idasanutlin 0.029 | alisertib 0.093 | [2] 0.055 | gefitinib -0.041 | [3] 0.038 | lapatinib 0.029

The list continues.

EDEM1 (UniProt Q92611)
inactive: [1] -0.101 | filanesib 0.029 | zotarolimus -0.092 | idasanutlin -0.016 | alisertib 0.054 | [2] 0.045 | gefitinib 0.075 | [3] -0.046 | lapatinib -0.08 | pictilisib -0.101

DPH6 (UniProt Q7L8W6)
inactive: [1] -0.055 | filanesib -0.039 | zotarolimus -0.085 | idasanutlin -0.141 | alisertib -0.009 | [2] 0.054 | gefitinib -0.002 | [3] -0.046 | lapatinib 0.016 | pictilisib -0.182

DPH5 isoform 5 (UniProt Q9H2P9)
inactive: [1] -0.01 | filanesib -0.024 | zotarolimus -0.002 | idasanutlin -0.049 | alisertib -0.037 | [2] -0.071 | gefitinib 0.017 | [3] 0.046 | lapatinib 0.043 | pictilisib -0.006

DNAJC21 isoform 3 (UniProt Q5F1R6)
inactive: [1] 0.022 | filanesib 0.129 | zotarolimus -0.014 | idasanutlin 0.083 | alisertib -0.01 | [2] 0.072 | gefitinib -0.009 | [3] -0.099 | lapatinib 0.015 | pictilisib -0.062

DYNC1LI1 (UniProt Q9Y6G9)
inactive: [1] -0.029 | filanesib -0.037 | zotarolimus 0.004 | idasanutlin -0.034 | alisertib -0.039 | [2] -0.012 | gefitinib -0.013 | [3] -0.037 | lapatinib 0.031 | pictilisib 0.009

DPAGT1 (UniProt Q9H3H5)
inactive: [1] 0.045 | filanesib -0.047 | zotarolimus 0.04 | idasanutlin -0.045 | alisertib 0.019 | [2] -0.006 | gefitinib 0.02 | [3] 0.047 | lapatinib 0.027 | pictilisib -0.026

EAPP (UniProt Q56P03)
inactive: [1] -0.245 | filanesib 0.062 | zotarolimus 0.02 | idasanutlin 0.081 | alisertib -0.11 | [2] 0.08 | gefitinib -0.023 | [3] -0.039 | lapatinib 0.079 | pictilisib 0.007

DNAL1 (UniProt Q4LDG9)
inactive: [1] 0.009 | zotarolimus 0.024 | idasanutlin -0.098

DRAM2 (UniProt Q6UX65)
inactive: [1] -0.019 | filanesib -0.033 | zotarolimus -0.038 | idasanutlin 0.138 | alisertib 0.21 | [2] -0.051 | [3] 0.148 | lapatinib -0.088
